Measured values as given in article PMC7854603.
Construct, isoform or probe ends are uncertain for at least one entry. At least one verdict was read from the data and is not stated in words by the source.

The chains behind the UniProt entries cited, without tags or fusion partners. Residues count along the entry.
UniProt Q9Y3Z3, 114-626 T592D: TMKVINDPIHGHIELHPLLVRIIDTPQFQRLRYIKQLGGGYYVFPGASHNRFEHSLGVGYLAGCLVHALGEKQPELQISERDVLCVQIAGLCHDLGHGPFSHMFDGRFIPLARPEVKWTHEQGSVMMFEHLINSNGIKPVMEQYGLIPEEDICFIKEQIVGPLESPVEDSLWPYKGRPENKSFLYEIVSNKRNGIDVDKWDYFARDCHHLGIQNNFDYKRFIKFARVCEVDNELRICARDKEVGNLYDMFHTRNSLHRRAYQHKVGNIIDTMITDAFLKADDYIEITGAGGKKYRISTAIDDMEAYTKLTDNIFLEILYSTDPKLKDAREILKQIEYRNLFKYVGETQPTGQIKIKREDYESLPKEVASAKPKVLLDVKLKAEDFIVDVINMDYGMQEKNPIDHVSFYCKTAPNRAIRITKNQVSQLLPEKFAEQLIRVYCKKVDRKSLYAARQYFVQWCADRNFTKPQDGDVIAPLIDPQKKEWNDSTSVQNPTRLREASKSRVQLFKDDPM

Columns and labels:
SAMHD1 full-length WT = SAMHD1 full-length WT (UniProt Q9Y3Z3); assay: fluorescence anisotropy; conditions: not significantly different from HD domain; phosphorothioate at linkages 1-4, mixed Rp/Sp; FA: 50 mM Tris pH 8, 100 mM NaCl, 5 mM MgCl2, 1 mM TCEP, 50 nM 6FAM-oligo (salt series with KCl 50-150 mM); SEC same buffer; recombinant protein; residues 1-626; label: 5'-6FAM; single-stranded DNA
SAMHD1 T592D = SAMHD1 T592D (UniProt Q9Y3Z3); assay: fluorescence anisotropy; conditions: no effect of mutation; phosphorothioate at linkages 1-4, mixed Rp/Sp; FA: 50 mM Tris pH 8, 100 mM NaCl, 5 mM MgCl2, 1 mM TCEP, 50 nM 6FAM-oligo (salt series with KCl 50-150 mM); SEC same buffer; recombinant protein; residues 114-626; label: 5'-6FAM; single-stranded DNA

Sequence: CGCCT [6FAM-d(C*G*C*C*T)]
- binding result (SAMHD1 full-length WT): binds
- binding result (SAMHD1 T592D): binds
